Here are results for 31 targets from the supplement of paper PMC10849652.

Sequences of proteins named here, by UniProt entry; tags and fusion partners are left off. A change or cut given only in a name is not applied to a line headed by its entry.
UniProt Q9H974: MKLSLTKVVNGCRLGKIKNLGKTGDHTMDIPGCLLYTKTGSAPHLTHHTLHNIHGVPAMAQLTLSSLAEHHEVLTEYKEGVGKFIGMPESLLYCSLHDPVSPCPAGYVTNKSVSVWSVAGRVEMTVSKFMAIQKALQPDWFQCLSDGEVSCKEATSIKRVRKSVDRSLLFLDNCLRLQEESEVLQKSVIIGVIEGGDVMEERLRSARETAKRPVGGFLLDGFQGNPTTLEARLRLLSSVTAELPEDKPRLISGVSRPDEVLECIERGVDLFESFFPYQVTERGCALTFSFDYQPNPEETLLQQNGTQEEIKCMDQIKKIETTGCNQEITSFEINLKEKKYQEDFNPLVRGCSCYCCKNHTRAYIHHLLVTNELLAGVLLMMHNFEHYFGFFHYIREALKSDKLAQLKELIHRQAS
UniProt P11234: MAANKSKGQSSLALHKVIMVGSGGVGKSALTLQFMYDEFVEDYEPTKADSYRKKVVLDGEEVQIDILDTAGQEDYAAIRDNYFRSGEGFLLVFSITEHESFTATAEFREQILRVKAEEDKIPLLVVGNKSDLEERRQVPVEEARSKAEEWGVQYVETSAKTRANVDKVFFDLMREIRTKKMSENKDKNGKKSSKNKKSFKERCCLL
UniProt Q9BRQ0: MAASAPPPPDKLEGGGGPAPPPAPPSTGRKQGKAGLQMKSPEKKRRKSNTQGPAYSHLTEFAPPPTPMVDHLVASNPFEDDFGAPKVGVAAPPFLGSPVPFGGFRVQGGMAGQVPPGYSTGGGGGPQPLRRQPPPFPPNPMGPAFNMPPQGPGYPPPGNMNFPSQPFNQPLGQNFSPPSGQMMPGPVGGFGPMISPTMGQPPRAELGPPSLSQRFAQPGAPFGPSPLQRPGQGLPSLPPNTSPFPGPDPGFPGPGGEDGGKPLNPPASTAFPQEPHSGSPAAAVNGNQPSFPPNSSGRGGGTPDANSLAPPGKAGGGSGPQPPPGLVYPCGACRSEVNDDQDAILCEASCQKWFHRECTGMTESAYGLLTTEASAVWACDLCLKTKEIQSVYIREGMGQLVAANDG
UniProt Q92696: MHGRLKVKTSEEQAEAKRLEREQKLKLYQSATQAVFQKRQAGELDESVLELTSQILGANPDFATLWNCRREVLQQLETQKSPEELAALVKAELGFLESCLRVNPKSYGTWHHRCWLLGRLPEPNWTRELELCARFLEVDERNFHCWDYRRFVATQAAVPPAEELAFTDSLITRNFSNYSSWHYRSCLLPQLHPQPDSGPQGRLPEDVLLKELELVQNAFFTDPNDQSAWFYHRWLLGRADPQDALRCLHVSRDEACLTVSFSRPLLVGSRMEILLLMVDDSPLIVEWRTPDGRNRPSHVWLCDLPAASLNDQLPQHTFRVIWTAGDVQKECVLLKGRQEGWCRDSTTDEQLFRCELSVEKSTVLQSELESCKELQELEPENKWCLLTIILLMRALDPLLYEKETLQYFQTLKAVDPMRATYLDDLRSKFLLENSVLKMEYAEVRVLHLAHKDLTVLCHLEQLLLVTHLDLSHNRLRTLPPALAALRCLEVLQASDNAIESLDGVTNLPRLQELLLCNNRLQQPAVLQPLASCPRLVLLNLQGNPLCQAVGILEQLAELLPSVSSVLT
UniProt O75154: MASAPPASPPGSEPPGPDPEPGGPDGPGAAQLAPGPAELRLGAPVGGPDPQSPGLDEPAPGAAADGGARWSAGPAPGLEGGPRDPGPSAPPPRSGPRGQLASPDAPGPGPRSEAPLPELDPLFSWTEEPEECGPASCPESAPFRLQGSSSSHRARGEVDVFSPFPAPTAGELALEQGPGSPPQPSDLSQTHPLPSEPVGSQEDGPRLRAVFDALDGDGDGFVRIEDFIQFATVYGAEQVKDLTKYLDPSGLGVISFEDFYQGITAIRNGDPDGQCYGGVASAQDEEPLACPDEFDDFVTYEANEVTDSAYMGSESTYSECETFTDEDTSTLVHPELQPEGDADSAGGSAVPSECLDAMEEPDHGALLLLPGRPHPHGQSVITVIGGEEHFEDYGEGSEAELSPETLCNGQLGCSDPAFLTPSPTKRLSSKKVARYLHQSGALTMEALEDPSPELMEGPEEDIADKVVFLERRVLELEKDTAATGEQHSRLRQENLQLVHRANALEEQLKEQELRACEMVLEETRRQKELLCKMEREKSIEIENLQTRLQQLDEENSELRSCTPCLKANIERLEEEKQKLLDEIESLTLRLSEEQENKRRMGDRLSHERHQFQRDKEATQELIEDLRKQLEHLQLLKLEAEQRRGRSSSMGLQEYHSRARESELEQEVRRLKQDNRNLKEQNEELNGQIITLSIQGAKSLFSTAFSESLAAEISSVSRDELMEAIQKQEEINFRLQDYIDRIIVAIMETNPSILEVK
UniProt Q9ULZ3, whole entry, looked up: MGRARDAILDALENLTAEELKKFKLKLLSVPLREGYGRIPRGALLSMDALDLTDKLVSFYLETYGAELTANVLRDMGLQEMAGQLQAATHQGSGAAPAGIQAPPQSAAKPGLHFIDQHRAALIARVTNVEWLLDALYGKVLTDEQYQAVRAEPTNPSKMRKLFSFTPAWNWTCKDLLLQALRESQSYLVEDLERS
UniProt Q4G0T1: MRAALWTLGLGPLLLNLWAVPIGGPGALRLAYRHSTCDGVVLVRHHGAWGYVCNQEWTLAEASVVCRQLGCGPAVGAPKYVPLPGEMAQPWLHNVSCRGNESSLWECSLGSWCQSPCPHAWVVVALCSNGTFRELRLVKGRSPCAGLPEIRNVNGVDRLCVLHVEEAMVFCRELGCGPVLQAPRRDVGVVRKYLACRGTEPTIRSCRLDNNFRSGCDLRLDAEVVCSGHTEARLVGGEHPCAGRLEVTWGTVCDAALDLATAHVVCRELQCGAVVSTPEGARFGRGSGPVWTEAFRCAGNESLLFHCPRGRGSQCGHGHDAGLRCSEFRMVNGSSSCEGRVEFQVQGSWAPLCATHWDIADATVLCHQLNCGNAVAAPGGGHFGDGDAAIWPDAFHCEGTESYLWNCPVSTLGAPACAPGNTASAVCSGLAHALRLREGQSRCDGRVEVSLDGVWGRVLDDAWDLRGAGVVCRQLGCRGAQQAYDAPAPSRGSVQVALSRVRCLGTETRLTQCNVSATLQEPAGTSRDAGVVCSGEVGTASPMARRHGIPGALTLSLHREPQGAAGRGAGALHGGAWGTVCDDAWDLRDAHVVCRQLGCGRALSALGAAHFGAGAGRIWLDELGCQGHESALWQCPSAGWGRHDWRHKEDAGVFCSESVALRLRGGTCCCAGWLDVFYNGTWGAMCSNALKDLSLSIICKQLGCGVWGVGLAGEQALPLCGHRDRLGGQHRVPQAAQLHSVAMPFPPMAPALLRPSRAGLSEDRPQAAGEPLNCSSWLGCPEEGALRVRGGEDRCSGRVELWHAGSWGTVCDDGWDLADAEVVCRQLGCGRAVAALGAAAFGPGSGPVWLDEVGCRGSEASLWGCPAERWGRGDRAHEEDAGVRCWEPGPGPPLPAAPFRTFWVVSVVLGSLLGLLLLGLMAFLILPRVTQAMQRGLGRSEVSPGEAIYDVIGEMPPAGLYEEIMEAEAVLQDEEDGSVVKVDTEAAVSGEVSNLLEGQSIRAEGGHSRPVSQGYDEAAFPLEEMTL
UniProt P32322: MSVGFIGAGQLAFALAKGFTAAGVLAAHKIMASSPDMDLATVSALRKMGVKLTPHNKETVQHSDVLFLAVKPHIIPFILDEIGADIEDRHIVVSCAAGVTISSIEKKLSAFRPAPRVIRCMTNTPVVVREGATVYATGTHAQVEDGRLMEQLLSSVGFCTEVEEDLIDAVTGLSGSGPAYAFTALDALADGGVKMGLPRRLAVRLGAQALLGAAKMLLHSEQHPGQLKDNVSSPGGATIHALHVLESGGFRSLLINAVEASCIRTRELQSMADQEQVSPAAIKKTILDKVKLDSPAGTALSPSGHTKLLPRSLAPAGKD
UniProt Q9Y3L5: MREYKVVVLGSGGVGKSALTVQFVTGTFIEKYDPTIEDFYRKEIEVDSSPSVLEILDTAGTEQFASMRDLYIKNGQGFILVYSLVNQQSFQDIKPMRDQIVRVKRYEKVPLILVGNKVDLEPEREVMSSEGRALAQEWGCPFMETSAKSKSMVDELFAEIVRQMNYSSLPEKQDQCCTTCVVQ
UniProt O00391: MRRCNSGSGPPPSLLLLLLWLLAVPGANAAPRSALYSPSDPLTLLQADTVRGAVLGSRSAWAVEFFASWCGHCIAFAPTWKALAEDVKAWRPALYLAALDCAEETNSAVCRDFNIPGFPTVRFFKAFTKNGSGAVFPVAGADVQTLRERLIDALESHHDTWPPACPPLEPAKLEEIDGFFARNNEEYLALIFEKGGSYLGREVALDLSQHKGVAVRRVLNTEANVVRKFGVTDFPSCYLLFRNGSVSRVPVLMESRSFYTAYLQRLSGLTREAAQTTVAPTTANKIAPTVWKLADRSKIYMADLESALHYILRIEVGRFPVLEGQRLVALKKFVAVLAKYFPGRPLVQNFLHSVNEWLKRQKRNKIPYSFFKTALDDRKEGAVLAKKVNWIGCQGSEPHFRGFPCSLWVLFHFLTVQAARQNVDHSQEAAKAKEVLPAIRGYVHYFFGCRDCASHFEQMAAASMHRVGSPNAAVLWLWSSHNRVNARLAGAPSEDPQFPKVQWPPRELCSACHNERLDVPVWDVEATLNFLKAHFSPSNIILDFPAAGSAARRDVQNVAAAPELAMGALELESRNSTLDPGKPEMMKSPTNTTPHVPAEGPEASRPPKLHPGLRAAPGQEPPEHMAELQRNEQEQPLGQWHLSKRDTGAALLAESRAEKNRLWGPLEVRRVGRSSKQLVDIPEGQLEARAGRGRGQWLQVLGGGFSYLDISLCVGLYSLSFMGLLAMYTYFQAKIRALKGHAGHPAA
UniProt Q9HD47: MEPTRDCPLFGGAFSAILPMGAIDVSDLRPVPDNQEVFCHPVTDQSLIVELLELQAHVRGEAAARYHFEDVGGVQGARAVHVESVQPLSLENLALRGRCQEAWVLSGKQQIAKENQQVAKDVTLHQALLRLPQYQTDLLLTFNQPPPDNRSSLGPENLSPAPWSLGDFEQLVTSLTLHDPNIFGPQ
UniProt Q96B01: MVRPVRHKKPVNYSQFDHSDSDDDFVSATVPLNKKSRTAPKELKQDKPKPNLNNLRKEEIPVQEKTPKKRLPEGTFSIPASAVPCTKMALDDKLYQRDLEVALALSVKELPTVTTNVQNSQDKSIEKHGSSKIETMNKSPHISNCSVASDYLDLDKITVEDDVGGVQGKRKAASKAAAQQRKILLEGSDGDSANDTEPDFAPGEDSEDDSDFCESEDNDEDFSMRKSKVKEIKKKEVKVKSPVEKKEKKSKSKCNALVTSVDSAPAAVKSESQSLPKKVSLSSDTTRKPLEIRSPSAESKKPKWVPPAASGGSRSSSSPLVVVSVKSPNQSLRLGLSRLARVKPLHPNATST
UniProt Q53S08: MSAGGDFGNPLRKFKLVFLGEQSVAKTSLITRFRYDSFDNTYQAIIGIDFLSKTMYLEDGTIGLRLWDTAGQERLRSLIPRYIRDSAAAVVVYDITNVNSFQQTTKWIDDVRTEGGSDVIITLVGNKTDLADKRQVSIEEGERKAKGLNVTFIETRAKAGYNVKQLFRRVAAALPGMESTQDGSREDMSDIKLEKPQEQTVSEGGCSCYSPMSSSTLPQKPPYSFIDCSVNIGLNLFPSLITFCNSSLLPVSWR
UniProt Q9Y620: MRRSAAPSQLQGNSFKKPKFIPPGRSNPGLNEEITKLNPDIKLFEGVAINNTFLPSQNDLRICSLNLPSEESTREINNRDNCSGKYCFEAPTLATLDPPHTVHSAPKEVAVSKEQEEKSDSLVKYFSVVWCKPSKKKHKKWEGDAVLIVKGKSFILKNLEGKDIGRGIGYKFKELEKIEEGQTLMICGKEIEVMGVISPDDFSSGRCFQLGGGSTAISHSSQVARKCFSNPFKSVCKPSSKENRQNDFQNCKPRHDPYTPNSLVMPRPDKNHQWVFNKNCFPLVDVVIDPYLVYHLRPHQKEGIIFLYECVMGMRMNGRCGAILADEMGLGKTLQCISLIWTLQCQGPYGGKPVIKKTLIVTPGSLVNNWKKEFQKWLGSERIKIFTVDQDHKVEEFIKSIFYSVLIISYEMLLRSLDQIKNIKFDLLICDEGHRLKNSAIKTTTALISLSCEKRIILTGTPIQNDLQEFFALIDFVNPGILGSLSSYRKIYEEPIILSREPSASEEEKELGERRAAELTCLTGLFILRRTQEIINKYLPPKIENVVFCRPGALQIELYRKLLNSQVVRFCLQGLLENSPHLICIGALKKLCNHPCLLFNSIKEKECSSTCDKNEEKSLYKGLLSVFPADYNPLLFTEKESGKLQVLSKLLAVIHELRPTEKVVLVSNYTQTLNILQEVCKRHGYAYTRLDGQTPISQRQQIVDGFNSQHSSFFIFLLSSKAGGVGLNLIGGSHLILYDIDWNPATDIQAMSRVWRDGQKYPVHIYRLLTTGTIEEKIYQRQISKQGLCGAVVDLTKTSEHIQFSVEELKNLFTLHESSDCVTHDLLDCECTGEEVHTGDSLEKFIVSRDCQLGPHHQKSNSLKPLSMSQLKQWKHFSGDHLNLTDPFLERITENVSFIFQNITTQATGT

The list shows a part of the results.

Compound in one experiment: O=C(CCCCCCC(=O)Nc1ccccc1)NO [vorinostat]
As to the kind of experiment: log2 fold change, soluble protein after heating vs DMSO (PISA); higher = thermal stabilisation; K562 lysate, 10 uM; active = over 0.2 and 3.5 SD of the protein, either way, in both replicates (recomputed). The gist of the method:
(§1)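 To prepare the extract, K562 pellets were dounce-homogenised in PBS pH 7.4 with 1 mM MgCl2, giving crude material at 1 mg/mL protein. This was treated with 10 μM compound for 30 min, then heated in aliquots for 3 min over 48°C-58°C before pooling and addition of NP-40 to 0.5% at 4°C. Centrifugation at 21,000xg for 90 min left soluble protein in the supernatant, which TMTpro 16plex LC-MS/MS quantified with equalised channel sums. Results are log-two fold changes in thermal stability compared with solvent controls, from duplicates.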
As to QTRT2 isoform 4 (UniProt Q9H974), the log2 fold change is inactive: 0.079.
Still for that read-out and setting: the value for RALB isoform 2 (UniProt P11234) was inactive: 0.162; that for PYGO2 (UniProt Q9BRQ0) was inactive: 0.151.
As to R3HDM2 (UniProt B5MCU0), the log2 fold change was inactive: 0.012.
On the same count and under the same terms, with RABGGTA (UniProt Q92696) the figure was inactive: -0.068; with RAD23A isoform 3 (UniProt P54725), inactive: 0.46; with RAB33B (UniProt Q9H082), inactive: 0.019.
Turning to RAB11FIP3 isoform 3 (UniProt O75154), the log2 fold change is inactive: 0.002.
Still for that read-out and setting: the value for RAB11FIP5, A0A1B0GTL5 was inactive: 0; that for RAB27B (UniProt O00194) was inactive: 0.12.
Take PYCARD isoform 2 (UniProt Q9ULZ3): the log2 fold change is inactive: 0.106.
Same read-out and setting: the value for NA (UniProt Q4G0T1) was inactive: -0.027.
Still for that read-out and setting: the value for RAB43 (UniProt Q86YS6) was inactive: 0.045; that for PYCR1 isoform 3 (UniProt P32322) was inactive: 0.096; that for RAP2C (UniProt Q9Y3L5) was inactive: 0.13.
For the target RAD51D (UniProt O75771), the log2 fold change is inactive: -0.064.
The same measure, in the same setting: the value for RAB11FIP4 (UniProt Q86YS3) was inactive: 0.111.
Same read-out and setting: the value for RAB5IF isoform 5 (UniProt Q9BUV8) was inactive: -0.039.
For the target QSOX1 (UniProt O00391), the log2 fold change was inactive: 0.139.
Still for that read-out and setting: with RAD54L (UniProt Q92698) the figure was active: -1.06; with RAB29 (UniProt O14966), inactive: -0.199; with RANGRF (UniProt Q9HD47), inactive: -0.006.
Same read-out and setting: with RAD51AP1 (UniProt Q96B01) the figure was inactive: 0.053; with RAB6D (UniProt Q53S08), inactive: 0.151.

Compound in a further experiment: O=C(O)c1ccc2c(c1)nc(Nc1cccc(Cl)c1)c1ccncc12 [silmitasertib]
Described as above. The procedure, abridged:
as §1
Turning to QTRT2 isoform 4 (UniProt Q9H974), the log2 fold change is inactive: -0.011.
Still for that read-out and setting: with RALB isoform 2 (UniProt P11234) the figure was inactive: 0; with PYGO2 (UniProt Q9BRQ0), inactive: -0.067.
Still for that read-out and setting: with R3HDM2 (UniProt B5MCU0) the figure was inactive: -0.05; with RABGGTA (UniProt Q92696), inactive: 0.054.
Regarding RAD23A isoform 3 (UniProt P54725), the log2 fold change is inactive: -0.084.
With RAB33B (UniProt Q9H082), the log2 fold change was inactive: -0.061.
Consider RAB11FIP3 isoform 3 (UniProt O75154), for which the log2 fold change was inactive: -0.329.
Same read-out and setting: with RAB11FIP5, A0A1B0GTL5 the figure was inactive: -0.134; with RAB27B (UniProt O00194), inactive: 0.002.
Turning to PYCARD isoform 2 (UniProt Q9ULZ3), the log2 fold change is inactive: -0.014.
On the same count and under the same terms, with NA (UniProt Q4G0T1) the figure was inactive: 0.092; with RAB43 (UniProt Q86YS6), inactive: -0.015; with PYCR1 isoform 3 (UniProt P32322), inactive: -0.008.
Same read-out and setting: the value for RAP2C (UniProt Q9Y3L5) was inactive: -0.026; that for RAD51D (UniProt O75771) was inactive: -0.075; that for RAB11FIP4 (UniProt Q86YS3) was inactive: -0.082.
As for RAB5IF isoform 5 (UniProt Q9BUV8), the log2 fold change was inactive: -0.007.
For QSOX1 (UniProt O00391), the log2 fold change is inactive: 0.005.
On the same count and under the same terms, with RAD54L (UniProt Q92698) the figure was inactive: 0.065; with RAB29 (UniProt O14966), inactive: 0.111.
Still for that read-out and setting: the value for RANGRF (UniProt Q9HD47) was inactive: 0.055.
As for RAD51AP1 (UniProt Q96B01), the log2 fold change is inactive: -0.077.
On the same count and under the same terms, the value for RAB6D (UniProt Q53S08) was inactive: -0.02.

Compound in another experiment: O=C1NC(=O)C(c2cnc3ccccn23)=C1c1cn2c3c(cc(F)cc13)CN(C(=O)N1CCCCC1)CC2
The experiment is described as above. The gist of the method:
as §1
In the case of RANBP3 isoform 2 (UniProt Q9H6Z4), the log2 fold change is inactive: 0.006.
Consider QTRT2 isoform 4 (UniProt Q9H974), for which the log2 fold change is inactive: -0.007.
On the same count and under the same terms, with RALB isoform 2 (UniProt P11234) the figure was inactive: -0.009; with PYGO2 (UniProt Q9BRQ0), inactive: -0.003; with R3HDM2 (UniProt B5MCU0), inactive: -0.049.
Consider RABGGTA (UniProt Q92696), for which the log2 fold change is inactive: -0.019.
On the same count and under the same terms, with RAB11FIP5, A0A1B0GTL5 the figure was inactive: -0.293; with RAI1 (UniProt Q7Z5J4), inactive: 0.019.
Still for that read-out and setting: the value for PYHIN1 (UniProt Q6K0P9) was inactive: 0.218; that for PYCARD isoform 2 (UniProt Q9ULZ3) was inactive: 0.101; that for NA (UniProt Q4G0T1) was inactive: -0.036.
Still for that read-out and setting: the value for PYCR1 isoform 3 (UniProt P32322) was inactive: 0.012.
For the target RAB3B (UniProt P20337), the log2 fold change was inactive: 0.072.
On the same count and under the same terms, with RAP2C (UniProt Q9Y3L5) the figure was inactive: 0.058; with RAD54B (UniProt Q9Y620), inactive: -0.004.
The same measure, in the same setting: the value for RALGAPA2 (UniProt Q2PPJ7) was inactive: -0.011; that for QSOX1 (UniProt O00391) was inactive: -0.054; that for RAD17 (UniProt O75943) was inactive: -0.052.
The same measure, in the same setting: with RANGRF (UniProt Q9HD47) the figure was inactive: 0.003.
With RAD51AP1 (UniProt Q96B01), the log2 fold change was inactive: 0.014.
RAB6D (UniProt Q53S08): the log2 fold change is inactive: -0.011.
